Reference: patent US10103402B2, “Liquid phenothiazine catholytes for non-aqueous redox flow batteries” (University of Kentucky Research Foundation, priority 2015, dated 2018)

Columns and labels:
[1] = Static coin cell galvanostatic cycling with Li metal negative electrode; conditions: 10 mM in 0.5 M LiBF4 in PC; for Original charge capacity retained after 30 cycles: C/5, 3.2-3.8 V, Li metal negative electrode; for Coulombic efficiency: stabilized value over 30 cycles, C/5
Description: Next, to evaluate MEPT and MEEPT as cathode candidates for RFBs, the performance of the redox-active species over multiple charge and discharge cycles was analyzed, albeit in a static environment, using galvanostatic cycling in MEPT/Li and MEEPT/Li coin cells. Here we employed the electrolyte 0.5 M LiBF4 in PC in which both MEPT and MEEPT are miscible at as high as 50 wt. % (Table 1). The positive electrode was composed of graphite felt soaked in catholyte consisting of 10 mM active species in 0.5 M LiBF4 in PC, and Li metal was employed as the negative electrode. The electrodes were separated by a lithiated Nafion membrane. The coin cells were cycled between 3.2 and 3.8 V at a rate of C/5 up to 100% SOC so that the first oxidation would be accessed. The theoretical capacities of EPT, MEPT, and MEEPT are 118 mAh/g, 104 mAh/g, and 89 mAh/g, respectively. The charge and discharge plateaus occur in accordance with the potentials determined by CV; they represent the formation and reversible reduction of the respective radical cations. […] The gap between the charge and discharge capacities may result from crossover of the charged species. […] EPT, MEPT, and MEEPT retained ca. 76%, 68% and 67%, respectively, of the original charge capacity after 30 cycles, over which time the coulombic efficiencies for all three catholytes stabilized at ca. 90%.
The charge/discharge experiments were performed using a coin cell cycled by a Landt CT2001A battery cycler. All solutions were prepared in the argon-filled glovebox at room temperature. The catholyte used contained 10 mM EPT, MEPT, or MEEPT in 0.5 M LiBF4 in PC. Nafion 117 was used as the separator membrane between a graphite felt electrode (Sigracell® GFD3) and Li metal electrode. The graphite felt was vacuum dried at 80° C. overnight prior to use. The positive graphite electrodes were soaked in solutions of respective catholytes, for 3-4 h prior to use. When soaked, the foam electrodes absorb approximately 0.43 g of solution (active material: 0.7-1.0 mg). The Nafion membrane was pretreated and soaked in a solution of 0.5 M LiBF4 in PC for 3-4 h prior to use. Each coin cell was assembled in the glovebox and was removed for cycling. The cells were cycled between 3.2 and 3.8 V at a constant current of ca. 0.02 mA, corresponding to C/5 current rate. The charge process continued until the cell reach 100% theoretical capacity or 3.8 V voltage limit, whichever occurred first. Similarly, the discharge process was controlled by reaching 100% theoretical capacity or voltage limit of 3.2 V.

[2] = Overcharge cycling in LFP/graphite coin cells, 80 mM, C/10; conditions: 80 mM in Gen 2 electrolyte, LFP/graphite coin cell, C/10, 100% overcharge
Description: To determine if the high stability of MEPT and MEEPT were compatible in high concentrations in the neutral and radical cation forms in an environment with greater similarities to that of a non-aqueous RFB, the performance of these electro-active species in overcharging LIBs was evaluated, a method that Zhang and coworkers have also used to analyze the stability of electro-active material candidates. Overcharge experiments with MEPT and MEEPT were conducted at both low (80 mM) and high (1.0 M) concentrations in Gen 2 battery electrolyte in coin cells containing LiFePO4 (LFP) cathodes and graphitic anodes. At 80 mM, EPT, MEPT, and MEEPT were cycled at a rate of C/10 where the charge passed was double that needed to reach 100% state of charge (SOC), and then discharged at the same rate. As expected from the CV characterization, MEPT and MEEPT show higher shuttling potentials (3.50 and 3.55 V, respectively) than EPT (3.40 V) (FIG. 4). This difference is likely due to coordination of Li^+ to the redox shuttle, increasing the oxidation potentials.
Overcharge tests were conducted with stainless steel 2032 coin cells using LiFePO4 (MTI, Richmond, Calif.) as the cathode and MAG-10 (APHEVB, Argonne National Laboratory) as the anode. The anode was composed of 95 wt. % MAG-10 graphite (Hitachi) as the active material and 5 wt. % SBR/CMC (50/50) as the binder. The electrolyte used in coin cell testing was 1.2 M LiPF6 in EC/EMC (3:7 wt. %). Microporous PP/PE/PP trilayer separators from Celgard were used to prevent contact between the anode and cathode. Coin cells were prepared in an argon-filled glovebox with <0.1 ppm oxygen or water present. A Landt CT2001A battery cycler was used for coin cell cycling. Overcharge cycling was conducted by charging with constant current at rate of C/10 for 20 h, followed by discharge at a rate of C/10 for 10 h. […]

COCCOCCN1c2ccccc2Sc2ccccc21 [MEEPT, N-[2-(2-methoxyethoxy)ethyl]phenothiazine]
Original charge capacity retained after 30 cycles [1]: ~67%
Coulombic efficiency [1]: ca. 90%
Shuttling potential [2]: 3.55 V

COCCN1c2ccccc2Sc2ccccc21 [MEPT, N-(2-methoxyethyl)phenothiazine]
Original charge capacity retained after 30 cycles [1]: ~68%
Coulombic efficiency [1]: ca. 90%
Shuttling potential [2]: 3.50 V

CCN1c2ccccc2Sc2ccccc21 [EPT, N-ethylphenothiazine, reference compound]
Original charge capacity retained after 30 cycles [1]: ca. 76%
Coulombic efficiency [1]: ca. 90%
Shuttling potential [2]: 3.40 V
